What all share (experiment): cryo-EM structure; Pol I Initial Transcribing Complex assembled from Pol I, Rrn3, Core Factor and TBP on a biotinylated rDNA promoter scaffold with a 17-nt mismatched bubble and a 6-nt RNA; held on streptavidin beads, eluted with EcoRI, crosslinked with 0.185% glutaraldehyde; three states classified from one sample; both purified
Test [1] deals with T1, Rrn11 (S. cerevisiae) (UniProt Q04712).
T1 sequence: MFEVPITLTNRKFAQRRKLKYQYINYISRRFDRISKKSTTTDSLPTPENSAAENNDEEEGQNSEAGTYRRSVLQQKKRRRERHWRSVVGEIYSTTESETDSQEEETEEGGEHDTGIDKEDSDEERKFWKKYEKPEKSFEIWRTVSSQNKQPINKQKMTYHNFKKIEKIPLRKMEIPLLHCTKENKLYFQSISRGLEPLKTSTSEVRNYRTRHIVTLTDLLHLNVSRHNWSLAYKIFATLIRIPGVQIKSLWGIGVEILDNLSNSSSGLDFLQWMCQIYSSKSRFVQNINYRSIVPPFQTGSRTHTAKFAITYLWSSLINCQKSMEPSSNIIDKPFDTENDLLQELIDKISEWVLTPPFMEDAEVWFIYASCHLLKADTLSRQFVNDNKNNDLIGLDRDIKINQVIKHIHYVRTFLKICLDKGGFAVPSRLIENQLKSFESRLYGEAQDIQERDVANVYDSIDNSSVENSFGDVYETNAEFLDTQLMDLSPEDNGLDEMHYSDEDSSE

In test [2] the target is T2, Rrn6 (S. cerevisiae) (UniProt P32786).
T2 sequence: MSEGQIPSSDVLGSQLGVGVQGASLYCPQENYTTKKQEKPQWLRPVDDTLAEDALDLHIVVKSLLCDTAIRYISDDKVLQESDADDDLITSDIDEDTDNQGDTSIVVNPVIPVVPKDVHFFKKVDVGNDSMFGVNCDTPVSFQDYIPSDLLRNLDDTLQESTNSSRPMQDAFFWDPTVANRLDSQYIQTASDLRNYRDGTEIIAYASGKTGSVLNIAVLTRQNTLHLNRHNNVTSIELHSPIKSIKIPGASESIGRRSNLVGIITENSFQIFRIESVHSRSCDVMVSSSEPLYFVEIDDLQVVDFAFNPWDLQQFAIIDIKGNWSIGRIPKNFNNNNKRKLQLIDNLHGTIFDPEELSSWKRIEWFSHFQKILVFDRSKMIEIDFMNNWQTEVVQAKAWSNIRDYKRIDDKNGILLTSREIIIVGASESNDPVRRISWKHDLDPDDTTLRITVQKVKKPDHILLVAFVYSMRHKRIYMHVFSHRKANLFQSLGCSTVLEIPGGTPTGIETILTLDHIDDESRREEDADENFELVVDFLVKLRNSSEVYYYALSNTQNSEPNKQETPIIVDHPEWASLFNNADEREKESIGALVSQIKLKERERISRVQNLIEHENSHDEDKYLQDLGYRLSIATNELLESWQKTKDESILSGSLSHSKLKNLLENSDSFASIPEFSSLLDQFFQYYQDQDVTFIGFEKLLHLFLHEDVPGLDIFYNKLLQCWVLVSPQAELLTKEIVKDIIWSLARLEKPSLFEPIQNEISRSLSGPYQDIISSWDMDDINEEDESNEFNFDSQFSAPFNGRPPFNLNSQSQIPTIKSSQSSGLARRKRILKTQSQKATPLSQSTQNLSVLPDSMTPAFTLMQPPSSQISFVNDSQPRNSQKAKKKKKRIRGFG

The target in test [3] is Core Factor (S. cerevisiae) (UniProt P40992+Q04712+P32786).

This note sets out measurements from paper PMC5489313, “Structural mechanism of ATP-independent transcription initiation by RNA polymerase I” (eLife, 2017).

These are yes or no findings as the source states them, for the method shown. Some results given as binding are weak or reduced against the parent protein; the word gives no strength.

B1: Rrn7 (protein, UniProt P40992 1-514)
chain: MSTFIRGPICGTDNCPSRLWRIIDGRRTCQYGHVMEGDVEFNDDEDDLNGLGAGVITRRLNLTTNATGSFQSSQLTNSQLLQQQQRQSHKKFKKLIGHEAKLLFLKSFQFILKRQIRWLITEMRFPKEFEHVAKIIWLKILKTINDQPQEELKLQLHMTSTISILYLASTHLSLPVYTCDYIKWICTAKMPYFQASEILPKSWRIQLPNYYVSILEGSISPFNGQLYNKIALTCGMIHFKEFFNSEISCQGLLLKLVMQCALPPEFYFYTKQVIEFEETDIRNLTLWERTDERHTGRVSNHAELRVLSYFMLTINWMLSFDRDRQYPLKWILSLTESLTQRTTTSESIGRNIVKVVYPDKPTSSDYFQWSEEETLEFLKWMEKQFLPTQTKSLHNENGSMEMTIDQKIARRKLYKIFPLDREANHDGEFNDSTHQLTFIEDLQERYAKQTPFFESNKIRDSLNYQEANPPARKEAIGRLLTHIASQLLVDFAISKEQLKDCISRIKNACLHRMN
Take B1: the binding result in test [1] and in test [2] was “binds” throughout.

B2: Rrn11 (natural protein, S. cerevisiae)
chain: MFEVPITLTNRKFAQRRKLKYQYINYISRRFDRISKKSTTTDSLPTPENSAAENNDEEEGQNSEAGTYRRSVLQQKKRRRERHWRSVVGEIYSTTESETDSQEEETEEGGEHDTGIDKEDSDEERKFWKKYEKPEKSFEIWRTVSSQNKQPINKQKMTYHNFKKIEKIPLRKMEIPLLHCTKENKLYFQSISRGLEPLKTSTSEVRNYRTRHIVTLTDLLHLNVSRHNWSLAYKIFATLIRIPGVQIKSLWGIGVEILDNLSNSSSGLDFLQWMCQIYSSKSRFVQNINYRSIVPPFQTGSRTHTAKFAITYLWSSLINCQKSMEPSSNIIDKPFDTENDLLQELIDKISEWVLTPPFMEDAEVWFIYASCHLLKADTLSRQFVNDNKNNDLIGLDRDIKINQVIKHIHYVRTFLKICLDKGGFAVPSRLIENQLKSFESRLYGEAQDIQERDVANVYDSIDNSSVENSFGDVYETNAEFLDTQLMDLSPEDNGLDEMHYSDEDSSE
notes: Rrn11, Core Factor subunit, S. cerevisiae; Stood in the assay as a subunit of Core Factor; source: E. coli BL21-CodonPlus(DE3)-RIL, co-expressed as Core Factor from pET-CF, purified (Ni-NTA, HiTrap Heparin, HiTrap Q)
Take B2: the binding result in test [2] is recorded as “binds”.

B3: TATA-box Binding Protein (protein, UniProt P13393 1-240)
chain: MADEERLKEFKEANKIVFDPNTRQVWENQNRDGTKPATTFQSEEDIKRAAPESEKDTSATSGIVPTLQNIVATVTLGCRLDLKTVALHARNAEYNPKRFAAVIMRIREPKTTALIFASGKMVVTGAKSEDDSKLASRKYARIIQKIGFAAKFTDFKIQNIVGSCDVKFPIRLEGLAFSHGTFSSYEPELFPGLIYRMVKPKIVLLIFVSGKIVLTGAKQREEIYQAFEAIYPVLSEFRKM
For the molecule B3, in test [3], the binding result was “no binding (tested: ~50 picomole TBP)”.
